What follows are molecules tested on MALAT1 triple helix (assay: Isothermal titration calorimetry (ITC)).
Type: binding, human
For `CN(C)CCCNC(=N)c1cccc(/N=N/Nc2cccc(C(=N)NCCCN(C)C)c2)c1` [DMZ-M1], the DG was -1.73 kcal/mol, the DH was -1.61 kcal/mol and the “−TDS” value was -0.115 kcal/mol.
With `CN1CCN(CCNC(=N)c2cccc(/N=N/Nc3cccc(C(=N)NCCN4CCN(C)CC4)c3)c2)CC1` [DMZ-M10] the DG was -1.47 kcal/mol, the DH was -0.318 kcal/mol and the “−TDS” value was -1.15 kcal/mol.
`N=C(N)c1ccc(/N=N/Nc2ccc(C(=N)N)cc2)cc1` [DMZ-P0, diminazene, reference compound] was tested, and the DG was -1.46 kcal/mol, the DH was -1.87 kcal/mol and the “−TDS” value was 0.409 kcal/mol.
In the case of `CN(C)CCCNC(=N)c1ccc(/N=N/Nc2ccc(C(=N)NCCCN(C)C)cc2)cc1` [DMZ-P1], the DG was -1.46 kcal/mol, the DH was -1.62 kcal/mol and the “−TDS” value was -0.16 kcal/mol.
For `N=C(NCc1ccc(Cl)cc1)c1ccc(/N=N/Nc2ccc(C(=N)NCc3ccc(Cl)cc3)cc2)cc1` [DMZ-P5], the DG was -1.45 kcal/mol, the DH was -1.62 kcal/mol and the “−TDS” value was 0.167 kcal/mol.
With `N=C(NC1CCN(Cc2ccccc2)CC1)c1ccc(/N=N/Nc2ccc(C(=N)NC3CCN(Cc4ccccc4)CC3)cc2)cc1` [DMZ-P8] the DG was -1.63 kcal/mol, the DH was -0.87 kcal/mol and the “−TDS” value was -0.762 kcal/mol.
With `N=C(NCCN1CCNCC1)c1ccc(/N=N/Nc2ccc(C(=N)NCCN3CCNCC3)cc2)cc1` [DMZ-P9] the DG was -1.5 kcal/mol, the DH was -0.366 kcal/mol and the “−TDS” value was -1.13 kcal/mol.
`N=C(NCCC1CCN(Cc2ccccc2)CC1)c1ccc(/N=N/Nc2ccc(C(=N)NCCC3CCN(Cc4ccccc4)CC3)cc2)cc1` [DMZ-P13] was tested, and the DG was -1.56 kcal/mol, the DH was -0.65 kcal/mol and the “−TDS” value was -0.908 kcal/mol.

Reference: US20250270165A1, “COMPOSITIONS FOR AND METHODS OF MODULATING RNA STABILITY” (Duke University, priority 2022, published 2025)
